Test results taken from patent publication US7563760 (GENETICS INSTITUTE, dated 2009).
These are yes or no findings as the source states them, for the method shown. Some binding calls cover weakened binding; strength is not graded here.

The chains behind the UniProt entries cited, without tags or fusion partners. Where a name states a change or a piece, a line headed by the entry shows the natural chain unless it says otherwise. Residues count along the entry.
UniProt P16109, residues 42-771: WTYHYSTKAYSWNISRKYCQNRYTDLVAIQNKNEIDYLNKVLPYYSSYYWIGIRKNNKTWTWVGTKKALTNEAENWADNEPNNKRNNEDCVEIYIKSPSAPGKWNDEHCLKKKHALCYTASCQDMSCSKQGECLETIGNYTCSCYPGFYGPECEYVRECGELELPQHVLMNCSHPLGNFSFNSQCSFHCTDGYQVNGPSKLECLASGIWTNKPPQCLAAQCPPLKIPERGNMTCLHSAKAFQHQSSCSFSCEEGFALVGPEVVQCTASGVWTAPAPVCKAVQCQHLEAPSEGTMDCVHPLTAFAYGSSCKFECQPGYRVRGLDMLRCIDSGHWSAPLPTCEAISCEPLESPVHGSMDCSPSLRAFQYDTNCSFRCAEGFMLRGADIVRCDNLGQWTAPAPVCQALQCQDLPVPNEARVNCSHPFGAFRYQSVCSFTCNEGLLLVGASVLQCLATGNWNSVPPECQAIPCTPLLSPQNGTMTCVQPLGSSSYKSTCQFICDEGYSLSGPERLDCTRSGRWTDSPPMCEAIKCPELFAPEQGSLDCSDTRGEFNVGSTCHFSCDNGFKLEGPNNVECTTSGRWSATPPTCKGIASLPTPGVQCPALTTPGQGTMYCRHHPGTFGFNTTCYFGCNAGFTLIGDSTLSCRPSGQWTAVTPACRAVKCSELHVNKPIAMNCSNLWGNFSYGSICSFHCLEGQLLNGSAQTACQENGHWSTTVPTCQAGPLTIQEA

Target: LEC-γ1, chimeric form of P-selectin conjugated to the Fc portion of a human IgGγ1 (human) (UniProt P16109)
Assay: inhibition of Lec-γ1 binding to coated PSGL-1 (FIG. 30)

- binding: binds
B1: peptide … (amino acids 42-56 of SEQ ID NO:2 with a C-terminal cysteine) (peptide)
peptide: QATEYEYLDYDFLPEC
